# The supplement of paper PMC4683952
# Some of the results follow. No stated cut-off is given here; in the data, active = 2 or more and inactive = the rest. Repeats in this data set agree poorly, so a single value says little.
# Tested on: Lgr5 (MarsCy1-Lgr5-EGFP, U2OS)
# Test: cell-surface Lgr5 expression (SCi1 fluorescence, background-subtracted) relative to WT DMSO (fold of DMSO control); higher = more Lgr5 at the plasma membrane
# Settings: U2OS MarsCy1-Lgr5-EGFP stable; treatment time: overnight; library: ActiProbe-5K (TimTec); 25 µM
row,SMILES,cell-surface Lgr5 expression
1,CN(C)CCN1C(=O)C(O)=C(C(=O)c2cccs2)C1c1ccco1 (centres undefined),inactive: 1.2
2,CCN(C(=O)C(C)C)C1CCCCC1,inactive: 1
3,CC1(C)C=C(c2ccc(C3=CC(C)(C)NC(C)(C)C3)s2)CC(C)(C)N1,inactive: 0.771
4,CCOC(=O)c1sc(NC(=O)C(C)C)c(C(=O)OCC)c1C,inactive: 1.29
5,Cc1c(-c2cc(C(F)F)c3c(C4CC4)nn(C)c3n2)cnn1C,inactive: 1.24
6,O=C(CCn1nc(C(F)(F)F)c(Cl)c1C1CC1)Nc1nnc(C2CC2)s1,inactive: 1.22
7,N#Cc1c(SCC(=O)NC2CC2)sc2c(O)nc(=O)[nH]c12,inactive: 1.19
8,Cc1cc(/C=C(/C#N)C(N)=S)c(C)s1,inactive: 1.13
9,Fc1ccc(-c2nc(-c3ccc4c(c3)OCO4)no2)cc1,inactive: 0.919
10,CCn1c(Cn2cnc([N+](=O)[O-])n2)nnc1SC,inactive: 1.14
11,O=C(CSc1nc2[nH]c(=O)cc(O)c2s1)C12CC3CC(CC(C3)C1)C2,inactive: 1.19
12,CCOC(=O)c1cc(CNC2CCS(=O)(=O)C2)on1 (centres undefined),inactive: 1.16
13,S=C1NC(c2ccc(Br)cc2)=CC(c2ccccc2Cl)N1 (centres undefined),inactive: 0.977
14,CC(C)(C)c1cc(Br)cc(SSc2cc(Br)cc(C(C)(C)C)c2O)c1O,inactive: 0.523
15,COc1cccc(OC(F)(F)F)c1,inactive: 0.813
16,CCSc1nnc(C)c2ccccc12,inactive: 1.23
17,c1cc(-c2nnc(CC34CC5CC(CC(C5)C3)C4)o2)ccn1,inactive: 1.28
18,CC(=O)Nc1nonc1NC(=O)CSC1=NCCS1,inactive: 1.1
19,O=C(NCCCn1ccnc1)c1nc(-c2ccc(Br)o2)no1,inactive: 0.964
20,CC1CCC(C(C)C)C(OC(=O)CSc2n[nH]c(=O)[nH]c2=O)C1 (centres undefined),inactive: 1.31
21,Sc1nnc(-c2ccccn2)n1/N=C/c1cccnc1,inactive: 1.19
22,CCCCCC1(C)NC(=S)N(c2ccc(Cl)cc2)N1 (centres undefined),inactive: 0.959

row,SMILES,cell-surface Lgr5 expression
1,CN1CCN(c2ccc(Nc3cn[nH]c(=O)n3)cc2)CC1,inactive: 1.14
2,O=S1(=O)N=C(N2CCCc3ccccc32)c2ccccc21,inactive: 1.27
3,CC(C)(C)C1CCc2c(sc3nn[nH]c(=O)c23)C1 (centres undefined),inactive: 1.16
4,Oc1ccc(/C=N/Nc2nnn[nH]2)cc1O,inactive: 1.26
5,COc1ccc(S(=O)(=O)N2CCCC2)c(Cl)c1Cl,inactive: 1.56
6,O=C1NC(=O)C2(COC(c3ccccc3)OC2)S1 (centres undefined),inactive: 1.32
7,Cc1ccc(S(=O)(=O)O/N=C/c2ccc(Br)cc2)cc1,inactive: 1.2
8,C1=Nc2cccc3cccc(c23)N1,inactive: 0.796
9,Brc1ccc(NCn2cnc3ccccc32)cc1,inactive: 1.09
10,C=CCOc1cc(=O)oc2ccccc12,inactive: 1.25
11,Cc1c(Cn2cc(N)cn2)cnn1C,inactive: 1.1
12,Cc1sc2nc3n(c(=O)c2c1C)CCC3,inactive: 1
13,Cc1cc(Sc2cc(C)c(O)c(C(C)(C)C)c2)cc(C(C)(C)C)c1O,inactive: 0.716
14,CC(=O)C1=C(O)C=C(c2ccco2)CC1c1ccco1 (centres undefined),inactive: 1.3
15,NC(=S)NNC(=S)Nc1ccc(F)cc1,inactive: 1.15
16,Cc1cc(C(=O)O)c(S(C)(=O)=O)s1.O,inactive: 1.09
17,O=C(O)CN1CC2([N+](=O)[O-])C=CCC([N+](=O)[O-])(C1)C2 (centres undefined),inactive: 1.03
18,Cc1cc(-c2nnc(-c3cccs3)o2)n(C)n1,inactive: 1.04
19,O=c1cc2oc3cc(O)c(-c4ccc(O)cc4O)cc3nc-2cc1-c1ccc(O)cc1O,inactive: 1.3
20,O=[N+]([O-])/C=C\c1c2ccccc2cc2ccccc12,inactive: 0.21
21,O=C1CCNc2c(Br)cc(Br)cc2N1,inactive: 0.975
22,O=c1c(O)c(-c2ccc(O)c(O)c2)oc2ccc(O)cc12,inactive: 0.664

row,SMILES,cell-surface Lgr5 expression
1,Nc1cnc2ccccc2c1,inactive: 0.883
2,c1ccc(-n2ncc(-c3nnn[nH]3)n2)cc1,inactive: 1.03
3,N/N=C1\c2ccccc2-c2nc3ccccc3nc21,inactive: 1.15
4,Nc1cnn(COc2ccc(F)cc2Cl)c1,inactive: 1.06
5,CC(=C/c1ccco1)/C=N/NC(=O)c1cnccn1,inactive: 0.491
6,Cn1ncc(Cl)c1C(=O)NCCCn1cc(Cl)cn1,inactive: 1.28
7,Cc1occc1-c1nc(-c2cccs2)no1,inactive: 1.02
8,CCCCC1CN2CCc3c([nH]c4ccccc34)C2(C)C1 (centres undefined),inactive: 1.1
9,CN1C(=O)C2C(N=CN2CCCO)N(C)C1=O (centres undefined),inactive: 1.1
10,O=S(=O)(O)C(O)c1ccccn1 (centres undefined),inactive: 1.14
11,Sc1nc2cc(Cl)ccc2[nH]1,inactive: 1.01
12,Clc1ccc(-c2nnc(/C=C\c3cccc4ccccc34)o2)c(Cl)c1,inactive: 1.06
13,CC1C/C(=C/c2ccco2)C(C)N(C)C1 (centres undefined),inactive: 1.04
14,O=C1c2ccccc2-c2nc3ccccc3cc21,inactive: 1.58
15,Cc1n[n+]2c(C(=O)O)c(C)[n-]n2c1[N+](=O)[O-],inactive: 1.15
16,Cn1nnnc1SCc1csc(/C=C(/C#N)C(N)=S)c1,inactive: 1.12
17,O=C/C(=C\O)c1ccc2ccccc2n1,inactive: 1.08
18,N#Cc1c(N)sc2c1CCCCC2,inactive: 1.22
19,Cc1n[nH]c(C)c1C(C)N.Cl (centres undefined),inactive: 1.25
20,c1ccc(C(Sc2nc3ccccc3o2)c2ccccc2)cc1,inactive: 0.92
21,Nc1cc2c(cc1N)OCCO2,inactive: 1.83
22,S=c1n(C2c3ccccc3Oc3ccccc32)nc(-c2ccccc2)n1-c1ccccc1,inactive: 1.18

row,SMILES,cell-surface Lgr5 expression
1,CN(C)/C=N/CCn1cnc2c1c(=O)n(C)c(=O)n2C,inactive: 1.01
2,CC1CCc2c(sc3nc[nH]c(=O)c23)C1 (centres undefined),inactive: 0.946
3,CCCc1sc(-n2c(C)ccc2C)c(C#N)c1C,inactive: 1.28
4,Cc1nnc2nnc3c4ccccc4ccc3n12,inactive: 1.54
5,Cc1cc(C)n(-c2ccc3n[nH]c(=O)n3n2)n1,inactive: 1.48
6,O/N=C(/c1ccc(Cl)cc1)c1ccco1,inactive: 0.864
7,CN1CCN(c2nc3c(=O)[nH]c(N)nc3n2C2OC(CO)C(O)C2O)CC1 (centres undefined),inactive: 1.09
8,COC(=O)C1CN(C)CCC1=O.Cl (centres undefined),inactive: 1.13
9,COc1ccc(O)c(-c2c[nH]c(=S)nc2-c2cc(OC)ccc2OC)c1,inactive: 1.39
10,NS(=O)(=O)c1ccc2oc(CCl)nc2c1,inactive: 1.1
11,COCCN1C(=O)/C(=C/c2cccs2)SC1=S,inactive: 1.23
12,O=S(=O)(c1cc(Cl)ccc1Cl)N1CCc2ccccc2C1,inactive: 1.26
13,N#CCc1nc2ccccc2s1,inactive: 1.02
14,Oc1c(Br)cc(Br)cc1/C=N/n1cnnc1,inactive: 0.76
15,COc1cc(NS(=O)(=O)c2ccc(N)cc2)nc(OC)n1,inactive: 1.33
16,C1CCN(Cc2nnn[nH]2)CC1,inactive: 1.12
17,C(=N/N1CCN(c2ccccn2)CC1)/c1cccc2ccccc12,inactive: 0.848
18,COc1ccc(OC)c(NS(=O)(=O)c2ccc(OC)c3ncccc23)c1,inactive: 1.13
19,O=C1C(=C2C/C(=N/O)c3ccccc32)C(=O)c2ccccc21,inactive: 1.13
20,Cc1nc(O)nc(O)c1NS(=O)(=O)c1cccs1,inactive: 0.899
21,N#Cc1c(C(F)(F)F)cc(-c2cccs2)[nH]c1=S,inactive: 1.28
22,Cn1c(CSc2nncc3ccccc23)nc2ccccc21,inactive: 1.34

# Single values from above:
# cell-surface Lgr5 expression with CCCc1sc(-n2c(C)ccc2C)c(C#N)c1C is entered as inactive: 1.28
# cell-surface Lgr5 expression with O=C1C(=C2C/C(=N/O)c3ccccc32)C(=O)c2ccccc21 is entered as inactive: 1.13
# cell-surface Lgr5 expression with Cn1c(CSc2nncc3ccccc23)nc2ccccc21 is entered as inactive: 1.34

# Remaining list, next part

row,SMILES,cell-surface Lgr5 expression
1,COc1ccccc1NS(=O)(=O)c1cccc2nsnc12,inactive: 1.22
2,O=C(O)c1ncnc2[nH]cnc12,inactive: 1.2
3,O=C(O)/C=C/C(=O)C(=O)N1CCCC(C(F)(F)F)C1 (centres undefined),inactive: 1.16
4,N=c1[nH]c(=S)ss1,inactive: 1.76
5,Nc1cc(F)c(C(F)(F)F)c(F)c1,inactive: 1.15
6,O=C(CSC1=NC2CCCCC2N1)N1CCOCC1 (centres undefined),inactive: 1.19
7,O=[N+]([O-])c1cc(-n2cnnn2)ccc1N1CCOCC1,inactive: 1.14
8,CC(CNC(=O)C1CC1)OC12CC3CC(CC(C3)C1)C2 (centres undefined),inactive: 1.02
9,CC(C)CCOC(=O)CCSc1n[nH]c(=O)[nH]c1=O,inactive: 1.43
10,N#Cc1sc2sc(C#N)c(N)c2c1N,inactive: 1.2
11,CCN1CN(C2CCCCC2)CNC1=S,inactive: 1.16
12,CN(C)S(=O)(=O)N1CCCCC1,inactive: 0.885
13,c1cc(CCc2ccncc2)ccn1,inactive: 1.13
14,Cc1ncnc2c1c(C)nn2C,inactive: 1.14
15,O=C1NC(=S)S/C1=C1\C(=O)Nc2ccccc21,inactive: 0.996
16,COc1ccc(Oc2ccc(Cl)c(Cl)c2)c(N)c1,inactive: 0.839
17,O=C1CN(c2ccccc2)/C(=N\c2ccccc2)S1,inactive: 1.25
18,Fc1ccc2c(c1)[C@@H]1C=CC[C@@H]1[C@H](c1ccccc1Cl)N2,inactive: 1.07
19,O=C1Nc2ccc([N+](=O)[O-])cc2/C1=C1/S/C(=N\c2ccccc2)N(c2ccccc2)C1=O,inactive: 1.18
20,O=c1[nH]c2cc(S(=O)(=O)NCCCn3ccnc3)ccc2s1,inactive: 1.06
21,O=[N+]([O-])c1ccc2c(c1)OCCOCCOc1cc([N+](=O)[O-])ccc1S(=O)(=O)NCCOCCOCCNS2(=O)=O,inactive: 1.4
